Assay results reported in the supplement of paper PMC5836539.
± gives the standard deviation of the averaged measurements. Repeats in this data set agree poorly, so a single value says little.

The chains behind the UniProt entries cited, without tags or fusion partners. Where a name states a change or a piece, a line headed by the entry shows the natural chain unless it says otherwise.
UniProt P83916, whole entry, looked up: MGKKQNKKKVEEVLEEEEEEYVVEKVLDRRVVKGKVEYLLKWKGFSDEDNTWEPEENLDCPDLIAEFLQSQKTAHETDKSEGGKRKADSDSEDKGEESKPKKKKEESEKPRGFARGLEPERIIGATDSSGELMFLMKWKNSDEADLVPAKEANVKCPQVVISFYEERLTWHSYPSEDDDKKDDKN
UniProt Q15418, whole entry, looked up: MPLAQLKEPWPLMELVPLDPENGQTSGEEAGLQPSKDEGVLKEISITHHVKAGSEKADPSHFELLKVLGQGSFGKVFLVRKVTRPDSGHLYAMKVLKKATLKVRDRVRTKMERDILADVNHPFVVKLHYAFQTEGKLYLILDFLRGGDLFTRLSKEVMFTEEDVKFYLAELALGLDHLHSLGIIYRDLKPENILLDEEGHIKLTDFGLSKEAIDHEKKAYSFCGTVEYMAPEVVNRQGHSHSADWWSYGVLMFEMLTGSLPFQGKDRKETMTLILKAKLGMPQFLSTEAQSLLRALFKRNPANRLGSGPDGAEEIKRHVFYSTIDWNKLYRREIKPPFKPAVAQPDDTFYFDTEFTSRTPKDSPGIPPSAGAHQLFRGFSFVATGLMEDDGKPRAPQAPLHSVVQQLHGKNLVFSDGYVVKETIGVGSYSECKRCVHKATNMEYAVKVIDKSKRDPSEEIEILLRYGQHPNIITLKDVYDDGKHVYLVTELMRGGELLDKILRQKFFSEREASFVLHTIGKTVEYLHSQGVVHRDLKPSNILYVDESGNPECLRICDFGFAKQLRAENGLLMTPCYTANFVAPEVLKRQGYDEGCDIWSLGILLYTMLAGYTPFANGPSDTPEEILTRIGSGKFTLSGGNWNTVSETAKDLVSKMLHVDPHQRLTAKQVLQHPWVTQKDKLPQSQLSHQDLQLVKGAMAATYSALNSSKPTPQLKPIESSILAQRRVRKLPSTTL
UniProt Q9UBC2: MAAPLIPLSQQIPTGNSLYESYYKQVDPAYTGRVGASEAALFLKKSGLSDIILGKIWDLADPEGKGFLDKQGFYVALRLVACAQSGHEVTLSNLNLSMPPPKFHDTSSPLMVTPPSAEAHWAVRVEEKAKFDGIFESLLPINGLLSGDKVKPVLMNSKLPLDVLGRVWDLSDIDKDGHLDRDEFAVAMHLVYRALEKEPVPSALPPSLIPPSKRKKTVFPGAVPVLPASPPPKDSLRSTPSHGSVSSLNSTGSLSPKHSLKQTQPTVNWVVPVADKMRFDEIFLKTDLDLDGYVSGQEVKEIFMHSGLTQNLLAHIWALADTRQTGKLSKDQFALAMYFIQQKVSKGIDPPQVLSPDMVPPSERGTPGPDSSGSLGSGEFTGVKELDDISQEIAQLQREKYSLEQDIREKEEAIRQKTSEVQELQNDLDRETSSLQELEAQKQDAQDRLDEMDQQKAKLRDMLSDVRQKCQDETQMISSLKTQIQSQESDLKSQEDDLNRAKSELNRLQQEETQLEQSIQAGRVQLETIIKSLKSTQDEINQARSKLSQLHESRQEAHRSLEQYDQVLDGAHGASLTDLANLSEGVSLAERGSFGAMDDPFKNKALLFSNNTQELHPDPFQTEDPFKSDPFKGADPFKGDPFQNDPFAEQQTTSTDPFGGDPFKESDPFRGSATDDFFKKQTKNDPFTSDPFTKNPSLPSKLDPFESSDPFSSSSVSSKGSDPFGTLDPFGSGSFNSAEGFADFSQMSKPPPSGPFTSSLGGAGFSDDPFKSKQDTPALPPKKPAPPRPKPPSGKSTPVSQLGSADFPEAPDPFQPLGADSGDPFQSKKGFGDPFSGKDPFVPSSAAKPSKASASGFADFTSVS
UniProt Q9BU76: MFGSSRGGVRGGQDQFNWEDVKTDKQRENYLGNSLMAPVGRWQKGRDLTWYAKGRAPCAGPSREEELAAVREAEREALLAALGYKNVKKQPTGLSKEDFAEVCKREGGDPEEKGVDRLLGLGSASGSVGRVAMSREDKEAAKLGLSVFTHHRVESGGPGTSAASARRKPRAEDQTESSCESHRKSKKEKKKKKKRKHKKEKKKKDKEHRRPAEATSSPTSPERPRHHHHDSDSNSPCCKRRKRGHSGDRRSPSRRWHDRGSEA
UniProt Q641Q2, whole entry, looked up: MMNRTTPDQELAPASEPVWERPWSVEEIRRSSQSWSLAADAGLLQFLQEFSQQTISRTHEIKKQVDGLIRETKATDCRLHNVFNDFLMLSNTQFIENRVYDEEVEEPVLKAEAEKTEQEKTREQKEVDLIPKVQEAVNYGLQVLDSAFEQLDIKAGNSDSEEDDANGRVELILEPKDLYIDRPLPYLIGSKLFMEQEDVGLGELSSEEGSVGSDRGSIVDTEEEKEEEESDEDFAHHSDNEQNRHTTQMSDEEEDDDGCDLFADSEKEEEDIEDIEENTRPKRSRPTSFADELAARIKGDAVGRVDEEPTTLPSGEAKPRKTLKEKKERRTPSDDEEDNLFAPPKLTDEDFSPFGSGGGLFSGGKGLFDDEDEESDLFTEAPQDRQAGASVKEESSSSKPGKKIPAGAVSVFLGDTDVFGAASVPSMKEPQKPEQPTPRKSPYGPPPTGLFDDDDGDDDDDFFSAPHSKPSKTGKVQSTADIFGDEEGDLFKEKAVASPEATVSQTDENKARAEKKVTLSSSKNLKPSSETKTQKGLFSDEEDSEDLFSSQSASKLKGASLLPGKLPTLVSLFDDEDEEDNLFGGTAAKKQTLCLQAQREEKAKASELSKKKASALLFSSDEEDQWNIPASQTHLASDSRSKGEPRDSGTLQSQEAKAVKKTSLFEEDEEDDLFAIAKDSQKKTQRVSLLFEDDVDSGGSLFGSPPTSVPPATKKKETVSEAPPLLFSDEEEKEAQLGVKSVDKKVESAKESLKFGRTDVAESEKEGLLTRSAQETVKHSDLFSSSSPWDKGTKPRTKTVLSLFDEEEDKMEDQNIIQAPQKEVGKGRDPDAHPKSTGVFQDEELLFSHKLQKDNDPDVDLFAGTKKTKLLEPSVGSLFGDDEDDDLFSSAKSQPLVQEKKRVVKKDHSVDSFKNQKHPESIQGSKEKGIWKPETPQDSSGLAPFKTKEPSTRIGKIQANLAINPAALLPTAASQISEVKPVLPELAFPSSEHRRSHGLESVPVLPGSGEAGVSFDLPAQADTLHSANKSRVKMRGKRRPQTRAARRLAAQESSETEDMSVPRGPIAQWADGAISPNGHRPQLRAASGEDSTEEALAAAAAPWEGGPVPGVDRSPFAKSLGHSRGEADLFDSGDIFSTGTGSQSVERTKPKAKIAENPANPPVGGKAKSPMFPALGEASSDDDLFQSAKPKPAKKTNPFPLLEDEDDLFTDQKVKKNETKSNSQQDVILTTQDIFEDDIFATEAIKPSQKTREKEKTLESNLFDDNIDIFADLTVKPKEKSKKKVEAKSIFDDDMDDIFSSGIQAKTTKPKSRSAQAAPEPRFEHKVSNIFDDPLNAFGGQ
UniProt P42858, whole entry: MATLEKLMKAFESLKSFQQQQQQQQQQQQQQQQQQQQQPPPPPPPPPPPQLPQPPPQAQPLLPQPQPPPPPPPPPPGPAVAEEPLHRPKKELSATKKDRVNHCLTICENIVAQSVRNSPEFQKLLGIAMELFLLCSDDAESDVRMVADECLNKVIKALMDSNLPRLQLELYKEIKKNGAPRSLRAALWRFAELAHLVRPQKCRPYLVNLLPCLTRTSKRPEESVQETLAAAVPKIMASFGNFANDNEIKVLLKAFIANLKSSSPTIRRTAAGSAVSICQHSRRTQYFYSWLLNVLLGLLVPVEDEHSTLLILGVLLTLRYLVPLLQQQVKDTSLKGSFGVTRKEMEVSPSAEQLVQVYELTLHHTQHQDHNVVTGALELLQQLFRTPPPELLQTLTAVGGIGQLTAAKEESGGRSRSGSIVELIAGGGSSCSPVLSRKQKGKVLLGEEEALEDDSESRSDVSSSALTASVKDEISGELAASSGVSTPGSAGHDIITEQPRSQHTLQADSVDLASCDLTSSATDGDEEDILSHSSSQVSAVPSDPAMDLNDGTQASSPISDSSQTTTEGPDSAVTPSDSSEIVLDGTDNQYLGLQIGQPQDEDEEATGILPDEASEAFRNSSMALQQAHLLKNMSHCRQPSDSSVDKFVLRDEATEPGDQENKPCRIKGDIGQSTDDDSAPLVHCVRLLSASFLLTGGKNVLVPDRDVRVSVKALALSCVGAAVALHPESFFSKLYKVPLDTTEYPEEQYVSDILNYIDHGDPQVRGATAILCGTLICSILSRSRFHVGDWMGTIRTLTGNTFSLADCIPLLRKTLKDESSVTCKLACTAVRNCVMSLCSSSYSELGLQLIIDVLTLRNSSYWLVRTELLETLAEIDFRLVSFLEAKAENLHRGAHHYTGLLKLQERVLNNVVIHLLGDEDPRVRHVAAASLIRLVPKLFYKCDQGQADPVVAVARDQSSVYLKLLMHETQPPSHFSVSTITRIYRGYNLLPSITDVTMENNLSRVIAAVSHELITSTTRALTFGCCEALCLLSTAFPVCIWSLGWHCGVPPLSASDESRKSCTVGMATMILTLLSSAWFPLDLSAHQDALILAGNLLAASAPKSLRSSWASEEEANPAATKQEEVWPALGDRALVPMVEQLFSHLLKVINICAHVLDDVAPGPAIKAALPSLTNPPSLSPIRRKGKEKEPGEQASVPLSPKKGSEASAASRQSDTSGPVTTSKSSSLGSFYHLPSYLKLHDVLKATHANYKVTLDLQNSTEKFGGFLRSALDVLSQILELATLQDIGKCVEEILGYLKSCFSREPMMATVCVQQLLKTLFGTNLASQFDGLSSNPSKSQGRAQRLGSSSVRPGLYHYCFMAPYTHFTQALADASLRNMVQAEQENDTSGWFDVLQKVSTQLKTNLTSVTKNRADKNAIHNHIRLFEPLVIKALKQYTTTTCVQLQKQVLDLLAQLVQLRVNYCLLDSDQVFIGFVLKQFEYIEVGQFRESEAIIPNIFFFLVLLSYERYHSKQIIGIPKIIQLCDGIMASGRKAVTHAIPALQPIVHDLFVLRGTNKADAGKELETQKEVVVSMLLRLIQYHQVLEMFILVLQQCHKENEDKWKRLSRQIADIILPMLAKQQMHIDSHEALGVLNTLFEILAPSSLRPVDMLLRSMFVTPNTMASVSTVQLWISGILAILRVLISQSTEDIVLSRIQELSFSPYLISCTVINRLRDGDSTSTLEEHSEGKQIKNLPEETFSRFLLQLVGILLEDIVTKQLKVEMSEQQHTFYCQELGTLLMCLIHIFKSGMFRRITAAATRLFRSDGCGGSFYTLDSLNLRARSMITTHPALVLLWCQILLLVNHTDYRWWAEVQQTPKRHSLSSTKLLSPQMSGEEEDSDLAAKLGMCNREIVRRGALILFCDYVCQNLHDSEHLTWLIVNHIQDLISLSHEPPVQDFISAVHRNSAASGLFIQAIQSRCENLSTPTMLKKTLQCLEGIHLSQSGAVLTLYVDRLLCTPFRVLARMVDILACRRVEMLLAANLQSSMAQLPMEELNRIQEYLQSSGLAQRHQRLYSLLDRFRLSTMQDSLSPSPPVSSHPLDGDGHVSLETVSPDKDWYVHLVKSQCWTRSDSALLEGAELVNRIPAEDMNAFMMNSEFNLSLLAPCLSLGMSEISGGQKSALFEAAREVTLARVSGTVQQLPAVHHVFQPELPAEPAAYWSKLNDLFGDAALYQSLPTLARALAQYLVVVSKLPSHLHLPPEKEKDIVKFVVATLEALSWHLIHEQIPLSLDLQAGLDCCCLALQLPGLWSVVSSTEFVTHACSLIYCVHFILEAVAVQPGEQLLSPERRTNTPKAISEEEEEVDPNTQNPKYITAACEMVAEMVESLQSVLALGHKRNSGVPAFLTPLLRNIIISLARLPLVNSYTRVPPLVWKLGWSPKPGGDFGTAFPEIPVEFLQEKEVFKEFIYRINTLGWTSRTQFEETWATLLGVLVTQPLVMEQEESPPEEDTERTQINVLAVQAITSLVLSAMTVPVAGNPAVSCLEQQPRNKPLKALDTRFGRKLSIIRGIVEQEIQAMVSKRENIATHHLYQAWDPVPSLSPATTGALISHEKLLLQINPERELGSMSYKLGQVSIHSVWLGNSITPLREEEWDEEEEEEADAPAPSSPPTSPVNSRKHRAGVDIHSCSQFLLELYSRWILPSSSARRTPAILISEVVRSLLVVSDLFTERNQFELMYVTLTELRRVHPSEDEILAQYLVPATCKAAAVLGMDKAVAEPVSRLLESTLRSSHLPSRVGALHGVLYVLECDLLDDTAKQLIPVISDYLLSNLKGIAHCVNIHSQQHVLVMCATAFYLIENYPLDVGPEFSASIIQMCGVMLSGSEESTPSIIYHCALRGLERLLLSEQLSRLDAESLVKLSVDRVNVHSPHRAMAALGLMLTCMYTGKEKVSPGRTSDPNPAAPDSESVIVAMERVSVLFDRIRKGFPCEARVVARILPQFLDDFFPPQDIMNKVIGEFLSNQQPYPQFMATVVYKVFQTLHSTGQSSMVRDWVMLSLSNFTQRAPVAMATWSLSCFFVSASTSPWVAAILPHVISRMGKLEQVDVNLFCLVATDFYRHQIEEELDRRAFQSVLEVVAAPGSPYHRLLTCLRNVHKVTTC

What was measured:
[1] = compound: T1, CC[C@@H](C)Nc1cc(C(=O)N[C@H]2C[C@H]3CC[C@@H](C2)N3c2ccc(C(=O)C3CC3)cn2)c(C)cc1C(N)=O [XL888]; assay: phosphopeptide melting temperature shift (XL888 minus DMSO); higher = stabilised by drug treatment; details: 100 µM; treatment time 2 h; layout: intact cells; SK-Mel 28
Description: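 Phospho-TPP in intact SK-Mel 28 cells treated with 100 uM XL888 or DMSO for 2 h, heated at 10 temperatures (37-67 C) for 3 min, soluble fraction TMT10plex-labelled and TiO2 phospho-enriched. Melting curves were fitted per phosphopeptide; the value is the melting point difference (drug minus vehicle) in each of two biological replicates.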

[2] = compound: T1, XL888; assay: as above; details: 100 µM; treatment time 2 h; layout: intact cells; SK-Mel 24
Description: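 Phospho-TPP in intact SK-Mel 24 cells treated with 100 uM XL888 or DMSO for 2 h, heated at 10 temperatures (37-67 C) for 3 min, soluble fraction TMT10plex-labelled and TiO2 phospho-enriched. Melting curves were fitted per phosphopeptide; the value is the melting point difference (drug minus vehicle) in each of two biological replicates.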

Target: SPTBN1 phosphosite_2165 (phosphosite position: 2165) (UniProt Q01082)
- phosphopeptide melting temperature shift [1]: 1.26 ± 0.46 °C
- phosphopeptide melting temperature shift [2]: 0.426 ± 0.71 °C

Target: LARP1 phosphosite_90 (phosphosite position: 90) (UniProt Q6PKG0)
- phosphopeptide melting temperature shift [1]: 1.63 ± 1.2 °C
- phosphopeptide melting temperature shift [2]: 0.828 °C

Target: UniProt Q69YN4-3_phosphosite_1579 (phosphosite position: 1579)
- phosphopeptide melting temperature shift [1]: 0.741 °C
- phosphopeptide melting temperature shift [2]: -0.475 °C

Target: CARHSP1 phosphosite_41 (phosphosite position: 41) (UniProt Q9Y2V2)
- phosphopeptide melting temperature shift [1]: 2.36 ± 0.79 °C
- phosphopeptide melting temperature shift [2]: -0.0572 °C

Target: SOX13 phosphosite_335 (phosphosite position: 335) (UniProt Q9UN79)
- phosphopeptide melting temperature shift [1]: 1.92 ± 1.8 °C
- phosphopeptide melting temperature shift [2]: 1.71 °C

Target: HTATSF1 phosphosite_642 (phosphosite position: 642) (UniProt O43719)
- phosphopeptide melting temperature shift [1]: 0.96 ± 0.48 °C
- phosphopeptide melting temperature shift [2]: 1.55 ± 0.51 °C

Target: TSC22D4 phosphosite_279 (phosphosite position: 279) (UniProt Q9Y3Q8)
- phosphopeptide melting temperature shift [1]: 2.4 °C
- phosphopeptide melting temperature shift [2]: -0.519 °C

Target: TP53BP1 phosphosite_380 (phosphosite position: 380) (UniProt Q12888)
- phosphopeptide melting temperature shift [1]: 3.64 ± 2.6 °C
- phosphopeptide melting temperature shift [2]: 1.35 °C

Target: UniProt P83916_phosphosite_89 (phosphosite position: 89)
- phosphopeptide melting temperature shift [1]: 1.04 ± 0.64 °C
- phosphopeptide melting temperature shift [2]: 1.01 ± 0.33 °C

Target: UniProt Q9NYF8-3_phosphosite_494 (phosphosite position: 494)
- phosphopeptide melting temperature shift [1]: -0.318 °C
- phosphopeptide melting temperature shift [2]: 3.05 °C

Target: UniProt Q15418-3_phosphosite_271 (phosphosite position: 271)
- phosphopeptide melting temperature shift [1]: 0.765 ± 0.64 °C
- phosphopeptide melting temperature shift [2]: 0.291 °C

Target: SUPT6H phosphosite_125 (phosphosite position: 125) (UniProt Q7KZ85)
- phosphopeptide melting temperature shift [1]: 0.206 ± 0.059 °C
- phosphopeptide melting temperature shift [2]: -0.842 °C

Target: UniProt Q07666-2_phosphosite_20 (phosphosite position: 20)
- phosphopeptide melting temperature shift [1]: 4.23 ± 0.16 °C
- phosphopeptide melting temperature shift [2]: 1.13 °C

Target: UniProt Q5JTH9-2_phosphosite_980 (phosphosite position: 980)
- phosphopeptide melting temperature shift [1]: 2.75 ± 2.6 °C
- phosphopeptide melting temperature shift [2]: 0.735 °C

Target: SRRM2 phosphosite_1003 (phosphosite position: 1003) (UniProt Q9UQ35)
- phosphopeptide melting temperature shift [1]: 12.7 °C
- phosphopeptide melting temperature shift [2]: 3.46 °C

Target: UniProt Q8IUD2-4_phosphosite_21 (phosphosite position: 21)
- phosphopeptide melting temperature shift [1]: 3.78 °C
- phosphopeptide melting temperature shift [2]: -0.404 °C

Target: RBM33 phosphosite_41 (phosphosite position: 41) (UniProt Q96EV2)
- phosphopeptide melting temperature shift [2]: -2.18 °C

Target: EPS15L1 phosphosite_253 (phosphosite position: 253) (UniProt Q9UBC2)
- phosphopeptide melting temperature shift [2]: 0.603 °C

Target: UniProt Q9BU76_phosphosite_220 (phosphosite position: 220)
- phosphopeptide melting temperature shift [2]: 2.56 °C

Target: UniProt Q16555-2_phosphosite_473 (phosphosite position: 473)
- phosphopeptide melting temperature shift [2]: 1.93 ± 1.7 °C

Target: UniProt Q96S55-2_phosphosite_153 (phosphosite position: 153)
- phosphopeptide melting temperature shift [2]: -0.591 °C

Target: ACLY phosphosite_481 (phosphosite position: 481) (UniProt P53396)
- phosphopeptide melting temperature shift [2]: -0.659 °C

Target: ZNF768 phosphosite_83 (phosphosite position: 83) (UniProt Q9H5H4)
- phosphopeptide melting temperature shift [2]: 1.47 °C

Target: SORT1 phosphosite_825 (phosphosite position: 825) (UniProt Q99523)
- phosphopeptide melting temperature shift [2]: -2.02 °C

Target: UniProt Q6UN15-3_phosphosite_418 (phosphosite position: 418)
- phosphopeptide melting temperature shift [2]: 2.26 ± 1 °C

Target: SH3BP1 phosphosite_550 (phosphosite position: 550) (UniProt Q9Y3L3)
- phosphopeptide melting temperature shift [2]: 0.136 ± 0.41 °C

Target: S100A11 phosphosite_6 (phosphosite position: 6) (UniProt P31949)
- phosphopeptide melting temperature shift [2]: 2.86 °C

Target: FAM53C phosphosite_122 (phosphosite position: 122) (UniProt Q9NYF3)
- phosphopeptide melting temperature shift [2]: 0.504 °C

Target: ENO1 phosphosite_27 (phosphosite position: 27) (UniProt P06733)
- phosphopeptide melting temperature shift [2]: -0.595 °C

Target: UniProt Q13627-3_phosphosite_321 (phosphosite position: 321)
- phosphopeptide melting temperature shift [2]: -1.24 °C

Target: UniProt Q13671-2_phosphosite_351 (phosphosite position: 351)
- phosphopeptide melting temperature shift [2]: 0.656 °C

Target: UniProt Q641Q2-2_phosphosite_802 (phosphosite position: 802)
- phosphopeptide melting temperature shift [2]: -0.375 °C

Target: HTT phosphosite_1862 (phosphosite position: 1862) (UniProt P42858)
- phosphopeptide melting temperature shift [2]: -0.37 °C

Target: UniProt P49959-2_phosphosite_621 (phosphosite position: 621)
- phosphopeptide melting temperature shift [2]: -0.678 °C

Target: POLR3C phosphosite_204 (phosphosite position: 204) (UniProt Q9BUI4)
- phosphopeptide melting temperature shift [2]: -0.27 °C

Target: BRD4 phosphosite_601 (phosphosite position: 601) (UniProt O60885)
- phosphopeptide melting temperature shift [2]: -0.82 °C

Target: SRRM1 phosphosite_597 (phosphosite position: 597) (UniProt Q8IYB3)
- phosphopeptide melting temperature shift [2]: 1.56 ± 1.4 °C

Target: UniProt Q8WVC0-2_phosphosite_570 (phosphosite position: 570)
- phosphopeptide melting temperature shift [2]: 0.235 °C

Target: EML4 phosphosite_176 (phosphosite position: 176) (UniProt Q9HC35)
- phosphopeptide melting temperature shift [2]: 0.97 °C

Target: UniProt Q5VZK9-2_phosphosite_1094 (phosphosite position: 1094)
- phosphopeptide melting temperature shift [2]: 0.441 °C

Target: YRDC phosphosite_37 (phosphosite position: 37) (UniProt Q86U90)
- phosphopeptide melting temperature shift [2]: 0.0367 ± 0.37 °C

Target: ANXA2 phosphosite_24 (phosphosite position: 24) (UniProt P07355)
- phosphopeptide melting temperature shift [2]: 0.135 °C

Target: UniProt Q04637-6_phosphosite_1015 (phosphosite position: 1015)
- phosphopeptide melting temperature shift [2]: -0.415 ± 0.32 °C

Target: UniProt Q9Y4P8-4_phosphosite_395 (phosphosite position: 395)
- phosphopeptide melting temperature shift [2]: -1.09 °C

Target: BNIP2 phosphosite_114 (phosphosite position: 114) (UniProt Q12982)
- phosphopeptide melting temperature shift [2]: 0.0841 ± 0.16 °C

Target: UniProt Q8WYL5-4_phosphosite_666 (phosphosite position: 666)
- phosphopeptide melting temperature shift [2]: 0.28 °C

Target: ANKZF1 phosphosite_56 (phosphosite position: 56) (UniProt Q9H8Y5)
- phosphopeptide melting temperature shift [2]: 1.01 °C

Target: ANXA2 phosphosite_18 (phosphosite position: 18) (UniProt P07355)
- phosphopeptide melting temperature shift [2]: 0.552 °C

Target: UniProt Q9BST9-3_phosphosite_56 (phosphosite position: 56)
- phosphopeptide melting temperature shift [2]: -0.0281 °C

Target: UniProt Q9H3N1_phosphosite_247 (phosphosite position: 247)
- phosphopeptide melting temperature shift [2]: 2.17 °C

Target: UniProt Q8IZ21-3_phosphosite_102 (phosphosite position: 102)
- phosphopeptide melting temperature shift [2]: 2.21 °C

Target: UniProt Q5JSH3-2_phosphosite_561 (phosphosite position: 561)
- phosphopeptide melting temperature shift [2]: 0.467 °C

Target: NUP50 phosphosite_221 (phosphosite position: 221) (UniProt Q9UKX7)
- phosphopeptide melting temperature shift [2]: 2.67 °C

Target: UniProt Q9HAU0-5_phosphosite_799 (phosphosite position: 799)
- phosphopeptide melting temperature shift [2]: 1.59 ± 0.27 °C

Target: SLU7 phosphosite_215 (phosphosite position: 215) (UniProt O95391)
- phosphopeptide melting temperature shift [2]: 5.57 °C

Target: UniProt Q9Y608-4_phosphosite_96 (phosphosite position: 96)
- phosphopeptide melting temperature shift [2]: 0.387 °C

Target: EML3 phosphosite_176 (phosphosite position: 176) (UniProt Q32P44)
- phosphopeptide melting temperature shift [2]: -0.845 °C

Target: UniProt Q96B97-2_phosphosite_550 (phosphosite position: 550)
- phosphopeptide melting temperature shift [2]: -0.359 °C
